In this test the target is T1, mouse Kv4.2 channel with GFP fused to the C-terminus (Kv4.2g) (mouse) (UniProt Q9Z0V2).
T1 sequence: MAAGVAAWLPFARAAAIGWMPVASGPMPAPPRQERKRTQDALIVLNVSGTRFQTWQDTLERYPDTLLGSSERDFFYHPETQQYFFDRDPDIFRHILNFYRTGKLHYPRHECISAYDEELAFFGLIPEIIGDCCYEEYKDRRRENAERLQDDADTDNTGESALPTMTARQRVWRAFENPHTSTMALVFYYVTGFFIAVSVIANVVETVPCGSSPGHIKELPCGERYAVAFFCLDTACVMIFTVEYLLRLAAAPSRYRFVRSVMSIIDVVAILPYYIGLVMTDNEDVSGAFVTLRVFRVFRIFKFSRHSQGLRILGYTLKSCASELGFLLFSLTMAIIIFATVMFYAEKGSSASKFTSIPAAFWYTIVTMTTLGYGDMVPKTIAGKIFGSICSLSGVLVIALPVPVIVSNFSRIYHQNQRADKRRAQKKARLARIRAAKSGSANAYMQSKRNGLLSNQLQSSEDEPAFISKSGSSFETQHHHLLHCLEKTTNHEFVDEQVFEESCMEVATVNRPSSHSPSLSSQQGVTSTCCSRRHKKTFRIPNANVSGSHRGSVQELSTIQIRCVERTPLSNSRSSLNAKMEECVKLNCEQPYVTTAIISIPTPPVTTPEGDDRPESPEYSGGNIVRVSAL
Nature of the test: co-IP; preliminary immunoprecipitation from HEK cells co-transfected with Kv4.2g, HA-KChIP2a and HA-DPP10c (Supplementary Figure 1D); antibody used for the IP not given.

Results are given in words; binding and its absence hold for the method and conditions named. In cells and extracts the contact can be indirect. Binding can be weak; no strength is given. Where a sequence is shown, tags or fusion partners need not be part of it.

Take “hemagglutinin (HA)-tagged KChIP2a (HA-KChIP2a)”: the binding result is recorded as “binds”.

The values are drawn from article PMC8593141.
